According to article PMC6514012, “Targeting the neuronal calcium sensor DREAM with small-molecules for Huntington’s disease treatment” (Scientific Reports, 2019):
No constants are given. Whether binding was seen depends on the method and setting. Binding seen in cells or lysates may run through a third protein. Some entries that bind do so weakly or less than the wild type. Where a sequence is shown, tags or fusion partners need not be part of it.

Sequences of proteins named here, by UniProt entry; tags and fusion partners are left off. Residues count along the entry.
UniProt P18850, residues 306-369: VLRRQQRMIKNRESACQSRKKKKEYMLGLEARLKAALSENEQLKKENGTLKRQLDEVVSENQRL

Biological target: T1, Myc-DREAM (aa 71–256) (UniProt Q9Y2W7)
T1 sequence: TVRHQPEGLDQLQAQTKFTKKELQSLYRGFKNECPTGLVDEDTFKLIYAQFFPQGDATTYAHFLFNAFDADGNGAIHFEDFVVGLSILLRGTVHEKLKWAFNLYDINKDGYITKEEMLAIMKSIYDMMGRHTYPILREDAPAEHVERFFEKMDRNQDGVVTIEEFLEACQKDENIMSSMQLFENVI
Test: co-IP; whole cell extracts (200 ug) of cotransfected HEK293-T cells; immunoprecipitation with rabbit anti-Myc, blot with mouse anti-Flag; 2 mM calcium; vehicle (DMSO) or IQM-PC330 (30, 100 and 300 nM)

binding: binds
Substance: Flag-ATF6 (bZIP fragment aa 306–369) (from UniProt P18850 306-369) (domain or fragment)
